Measured values published in patent publication US10172825B2, “Pharmacological treatment of cognitive impairment” (priority 2006, dated 2019).

Tested on: Ts65Dn mice
Experiment: Two-object based object recognition task
Format: in vivo, mouse
Settings: WT and Ts65Dn mice
Source text: The object recognition task, a behavioral assay not requiring explicit rule learning or prolonged training, is based on the innate tendency of mice to differentially explore novel objects over familiar ones. Animals are submitted to daily handling sessions and are given an opportunity to habituate to a black acrylic, boxed enclosure, where they are exposed to two different objects during a 15-min training session. […] All are generally consistent in height and volume, and are symmetrical on a horizontal plane. They are set in two corners of the apparatus, positioned across from one another along its diameter. Subsequently, a 15-min. testing session is conducted 24 h after training. Here, the mice are presented with the object they had explored the previous day, and a new item (the objects being alternatively positioned in one corner or another in a balanced fashion).
Memory is operationally defined as the proportion of time animals spend investigating the novel object minus the proportion spent investigating the familiar one (Discrimination Index, DI=[Novel Object Exploration Time/Total Exploration Time−Familiar Object Exploration Time/Total Exploration Time]×100), where exploration constitutes any investigative behavior (i.e., head orientation, sniffing) or deliberate contact (i.e. rearing, licking) that occurs with each object. Behavioral trials are recorded by a tripod-mounted digital camera. Importantly, the object recognition task can be used repeatedly to evaluate rodent memory across time, and across various drug treatment regiments. […] Finally, all behavioral data are analyzed by Student's unpaired t tests. […]
The present experiment was carried out in a longitudinal, cross-over fashion, submitting four cohorts of WT and Ts65Dn experiment al pairs to a 4-week testing schedule. […] DI values are expressed as mean±SEM.
The animals were randomly assigned to groups receiving daily servings of chocolate milk or Metrazol (3 mg/kg), and were submitted to two repetitions of object recognition testing. […] DI values are expressed as mean±SEM.

[1] = training and testing periods, 4-week schedule (FIG. 3B)

Compound | Total object exploration (milk or milk-MTZ, training and testing periods (FIG. 5A)) | Total object exploration [1]
C1CCc2nnnn2CC1 [Metrazol, pentamethylenetetrazol] | unaffected by genotype or by milk-MTZ treatment | –
CC(C)(C)[C@]1(O)C[C@@H]2OC(=O)C[C@@]23C(=O)O[C@@H]2OC(=O)[C@H](O)[C@]213 [bilobalide, Bilobalide] | – | not influenced by genotype or by treatment regiment
Picrotoxin [PTX] | – | not influenced by genotype or by treatment regiment
